{
  "source": "patent US20180155698",
  "biological_target": "T1, DSA polymerase K276C,Q451C (Bacillus stearothermophilus) (UniProt Q04957)",
  "T1 sequence": "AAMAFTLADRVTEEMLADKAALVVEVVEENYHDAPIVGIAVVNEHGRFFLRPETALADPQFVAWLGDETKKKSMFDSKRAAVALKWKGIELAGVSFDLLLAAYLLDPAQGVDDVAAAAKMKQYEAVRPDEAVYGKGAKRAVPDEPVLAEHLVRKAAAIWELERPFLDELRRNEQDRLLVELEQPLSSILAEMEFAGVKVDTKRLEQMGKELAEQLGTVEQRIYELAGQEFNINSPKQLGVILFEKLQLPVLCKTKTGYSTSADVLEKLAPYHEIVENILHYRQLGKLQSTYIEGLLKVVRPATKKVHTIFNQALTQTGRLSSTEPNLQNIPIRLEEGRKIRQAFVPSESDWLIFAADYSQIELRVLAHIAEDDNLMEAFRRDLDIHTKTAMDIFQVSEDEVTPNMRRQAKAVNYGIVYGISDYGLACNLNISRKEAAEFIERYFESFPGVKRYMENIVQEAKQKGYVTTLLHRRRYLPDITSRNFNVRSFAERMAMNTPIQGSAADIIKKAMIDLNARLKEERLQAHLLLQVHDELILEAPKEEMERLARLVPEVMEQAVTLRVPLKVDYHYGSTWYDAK",
  "experiment": "binding assay",
  "details": "Cy-5 polymerase fluorescence in flow cell; 20 nM, 50 mM KCl, Sr2+, 47 C; purified recombinant protein",
  "note": "The exact form of at least one protein or probe is not confirmed. Protein sequences can lack the tags named with them.",
  "data": [
    {"sequence": "CCGATTCGTC (double strand) [RCA primed template yielding CCGATTCGTC]", "values": [
      {"measurement": "binding result", "value": "binds"}
    ]}
  ]
}
